In PMC4742157:
These are yes or no findings as the source states them, for the method shown. Some binding calls cover weakened binding; strength is not graded here. Tags and fused reporters may be left off the sequences shown.

Protein sequences, listed by entry. Tags and fused reporters are not part of them. Residues count along the entry.
UniProt Q9P126, residues 55-229: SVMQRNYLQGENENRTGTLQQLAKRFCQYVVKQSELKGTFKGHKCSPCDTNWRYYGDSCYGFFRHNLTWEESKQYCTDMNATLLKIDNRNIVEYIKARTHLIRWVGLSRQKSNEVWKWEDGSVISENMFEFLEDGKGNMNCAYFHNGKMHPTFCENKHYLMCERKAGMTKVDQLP

Target: T1, hPDPN-Fc (human) (UniProt Q86YL7)
T1 sequence: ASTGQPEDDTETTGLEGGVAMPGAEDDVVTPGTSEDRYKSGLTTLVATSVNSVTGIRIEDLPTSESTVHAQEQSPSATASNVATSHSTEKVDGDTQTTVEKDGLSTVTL
Assay: ELISA; inhibition assay: purified hPDPN-Fc immobilised at 1 μg/ml on Maxisorp plates; after blocking, LpMab-7 or NZ-1 added at 1 μg/ml for 30 min; then biotinylated CLEC-2-Fc (1 μg/ml) and peroxidase-conjugated streptavidin; OD at 655 nm; both purified

“CLEC-2-Fc (from UniProt Q9P126 55-229) (Fc fusion)” was tested, and the binding was “binds”.
